{
  "source": "paper PMC8765435",
  "about": "“In Vitro Antimalarial Activity of Inhibitors of the Human GTPase Rac1” (Antimicrobial Agents and Chemotherapy, 2022)",
  "tested_on": "HMEC-1 human microvascular endothelial cells",
  "experiment": "Cell cytotoxicity MTT assay",
  "format": "cell-based",
  "conditions": "ratio IC50 against HMEC-1 cells / IC50 against D10 asexual parasites",
  "method": "Cytotoxicity was evaluated on human microvascular endothelial cells (HMEC-1) as detailed in the supplemental material. […] Plates were then read on a microplate reader (Synergy 4; BioTek) at a wavelength of 550 nm (reference, 650 nm). […] All tests were performed in duplicate at least three times.\nThe selectivity index (SI) is the ratio between the cytotoxic IC50 value against HMEC-1 cells and the parasitic IC50 value against the D10 strain and indicates the compound selectivity for the parasite.\nCytotoxicity was evaluated on Human Microvascular Endothelial Cells (HMEC-1) maintained\nand 2 mM L-glutamine. Cells were seeded in 96 well flat bottom tissue culture clusters (1.5x104\ncells/well), let adhere overnight and treated with serial dilutions of test compounds . […]",
  "data": [
    {"smiles": "O=c1cc(CN2CCOCC2)occ1OCCCCCSc1ccnc2cc(C(F)(F)F)ccc12", "note": "[EHT1864]", "values": [
      {"measurement": "SI (selectivity index)", "value": 12.5}
    ]}
  ]
}
